Measured values published in the supplement of paper PMC11006884.
This list holds what a sample rich in targets with a hit left over. The data scatter; read single values as rough. The list shows a part of the results, in another mix than the full data.

Chains of the proteins cited; added tags and fusions are not shown. Lines headed by an entry give the natural chain unless they say otherwise; changes in a name come on top.
UniProt O15067: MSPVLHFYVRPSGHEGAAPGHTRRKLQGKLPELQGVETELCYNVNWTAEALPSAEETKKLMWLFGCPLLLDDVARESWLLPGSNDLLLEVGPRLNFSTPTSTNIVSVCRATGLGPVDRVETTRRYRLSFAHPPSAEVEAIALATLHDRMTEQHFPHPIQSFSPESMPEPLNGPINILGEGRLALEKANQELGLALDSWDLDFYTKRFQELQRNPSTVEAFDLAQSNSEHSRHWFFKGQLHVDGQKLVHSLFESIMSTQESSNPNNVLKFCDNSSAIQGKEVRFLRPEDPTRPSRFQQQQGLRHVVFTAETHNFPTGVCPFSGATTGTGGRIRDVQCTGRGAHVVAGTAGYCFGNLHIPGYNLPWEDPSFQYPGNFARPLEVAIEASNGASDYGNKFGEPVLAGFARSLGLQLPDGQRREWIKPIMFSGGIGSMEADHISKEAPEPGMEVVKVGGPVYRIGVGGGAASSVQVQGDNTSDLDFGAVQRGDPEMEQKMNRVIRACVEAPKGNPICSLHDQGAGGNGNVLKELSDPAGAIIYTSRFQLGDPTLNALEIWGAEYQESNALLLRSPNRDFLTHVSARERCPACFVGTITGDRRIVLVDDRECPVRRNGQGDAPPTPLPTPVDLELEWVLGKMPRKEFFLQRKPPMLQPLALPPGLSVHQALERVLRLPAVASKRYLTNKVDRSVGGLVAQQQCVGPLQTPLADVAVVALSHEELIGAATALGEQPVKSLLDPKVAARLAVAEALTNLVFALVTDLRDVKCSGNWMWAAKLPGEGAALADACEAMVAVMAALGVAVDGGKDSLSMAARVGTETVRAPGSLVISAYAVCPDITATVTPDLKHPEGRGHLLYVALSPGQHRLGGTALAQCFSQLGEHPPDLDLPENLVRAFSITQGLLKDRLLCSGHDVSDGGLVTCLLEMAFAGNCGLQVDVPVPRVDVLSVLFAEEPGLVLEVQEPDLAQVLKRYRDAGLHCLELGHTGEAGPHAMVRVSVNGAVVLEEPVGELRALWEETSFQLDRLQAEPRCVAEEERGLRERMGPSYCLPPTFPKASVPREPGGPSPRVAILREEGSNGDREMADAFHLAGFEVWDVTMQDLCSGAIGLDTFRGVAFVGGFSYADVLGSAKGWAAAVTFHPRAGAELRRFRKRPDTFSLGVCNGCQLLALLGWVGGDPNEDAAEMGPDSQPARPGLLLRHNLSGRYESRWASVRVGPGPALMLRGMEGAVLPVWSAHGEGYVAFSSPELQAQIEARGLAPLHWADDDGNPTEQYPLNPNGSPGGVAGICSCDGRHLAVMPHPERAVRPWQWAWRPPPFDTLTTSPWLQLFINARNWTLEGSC
UniProt O00410: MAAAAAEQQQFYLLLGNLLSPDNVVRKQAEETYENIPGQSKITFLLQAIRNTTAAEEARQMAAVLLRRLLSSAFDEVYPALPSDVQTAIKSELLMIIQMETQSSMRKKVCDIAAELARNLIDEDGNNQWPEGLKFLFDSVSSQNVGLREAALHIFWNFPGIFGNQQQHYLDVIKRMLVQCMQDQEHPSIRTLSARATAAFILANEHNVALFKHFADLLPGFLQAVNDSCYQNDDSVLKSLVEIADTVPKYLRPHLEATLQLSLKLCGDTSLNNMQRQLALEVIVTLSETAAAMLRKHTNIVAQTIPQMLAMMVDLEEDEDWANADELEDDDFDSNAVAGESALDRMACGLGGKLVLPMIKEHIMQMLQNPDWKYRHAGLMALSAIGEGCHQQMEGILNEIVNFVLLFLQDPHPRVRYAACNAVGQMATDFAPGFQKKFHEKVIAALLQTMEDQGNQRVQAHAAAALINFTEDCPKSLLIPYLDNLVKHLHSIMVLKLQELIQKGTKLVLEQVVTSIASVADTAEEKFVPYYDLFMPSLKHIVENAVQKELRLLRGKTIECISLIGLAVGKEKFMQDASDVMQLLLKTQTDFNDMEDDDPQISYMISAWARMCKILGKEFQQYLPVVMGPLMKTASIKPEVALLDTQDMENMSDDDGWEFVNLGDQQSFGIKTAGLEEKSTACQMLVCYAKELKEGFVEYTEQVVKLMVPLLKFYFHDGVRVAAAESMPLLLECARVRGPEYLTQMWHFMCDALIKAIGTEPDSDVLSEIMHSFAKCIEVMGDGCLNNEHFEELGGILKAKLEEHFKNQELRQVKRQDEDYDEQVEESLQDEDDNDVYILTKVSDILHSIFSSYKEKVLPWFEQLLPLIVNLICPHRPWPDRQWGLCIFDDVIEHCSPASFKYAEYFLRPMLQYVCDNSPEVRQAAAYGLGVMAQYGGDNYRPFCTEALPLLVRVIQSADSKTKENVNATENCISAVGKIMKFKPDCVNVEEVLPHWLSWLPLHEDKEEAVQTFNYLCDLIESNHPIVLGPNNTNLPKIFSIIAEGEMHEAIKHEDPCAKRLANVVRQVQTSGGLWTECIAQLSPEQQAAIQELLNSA
UniProt O43159: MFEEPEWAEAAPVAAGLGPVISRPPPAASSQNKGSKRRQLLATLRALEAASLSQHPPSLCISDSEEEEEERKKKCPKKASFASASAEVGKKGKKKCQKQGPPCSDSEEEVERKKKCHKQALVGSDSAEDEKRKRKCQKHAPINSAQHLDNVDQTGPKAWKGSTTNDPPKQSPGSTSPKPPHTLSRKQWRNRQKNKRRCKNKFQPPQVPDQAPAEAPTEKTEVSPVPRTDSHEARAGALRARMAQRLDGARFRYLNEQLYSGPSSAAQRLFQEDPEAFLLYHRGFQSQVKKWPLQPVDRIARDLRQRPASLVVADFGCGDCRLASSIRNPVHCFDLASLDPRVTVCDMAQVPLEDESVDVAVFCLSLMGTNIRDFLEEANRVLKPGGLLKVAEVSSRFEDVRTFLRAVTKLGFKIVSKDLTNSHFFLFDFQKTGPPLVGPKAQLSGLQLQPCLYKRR
UniProt O15305: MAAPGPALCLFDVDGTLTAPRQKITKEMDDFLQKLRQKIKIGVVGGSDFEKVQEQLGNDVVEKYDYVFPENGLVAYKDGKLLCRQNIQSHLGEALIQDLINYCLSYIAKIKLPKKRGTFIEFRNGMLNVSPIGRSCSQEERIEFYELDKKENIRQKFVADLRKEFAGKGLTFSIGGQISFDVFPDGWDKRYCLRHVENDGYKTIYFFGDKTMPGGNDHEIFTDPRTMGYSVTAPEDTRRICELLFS
UniProt O00571: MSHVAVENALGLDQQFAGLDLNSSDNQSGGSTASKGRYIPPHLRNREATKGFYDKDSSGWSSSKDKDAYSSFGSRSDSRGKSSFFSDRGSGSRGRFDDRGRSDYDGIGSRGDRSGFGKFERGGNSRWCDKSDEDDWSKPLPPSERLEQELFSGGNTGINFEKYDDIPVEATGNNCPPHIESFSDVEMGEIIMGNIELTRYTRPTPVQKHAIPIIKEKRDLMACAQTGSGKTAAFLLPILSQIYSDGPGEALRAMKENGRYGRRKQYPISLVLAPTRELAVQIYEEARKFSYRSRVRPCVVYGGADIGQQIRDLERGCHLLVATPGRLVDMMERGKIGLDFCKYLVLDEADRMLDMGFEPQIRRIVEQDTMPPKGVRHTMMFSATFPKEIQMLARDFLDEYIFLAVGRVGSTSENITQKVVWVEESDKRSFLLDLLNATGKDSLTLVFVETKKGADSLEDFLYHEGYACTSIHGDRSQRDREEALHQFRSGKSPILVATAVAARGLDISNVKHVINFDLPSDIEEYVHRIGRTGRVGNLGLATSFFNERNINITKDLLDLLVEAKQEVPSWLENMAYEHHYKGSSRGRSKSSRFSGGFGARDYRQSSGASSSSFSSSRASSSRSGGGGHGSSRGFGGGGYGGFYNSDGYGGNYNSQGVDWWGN
UniProt O15381: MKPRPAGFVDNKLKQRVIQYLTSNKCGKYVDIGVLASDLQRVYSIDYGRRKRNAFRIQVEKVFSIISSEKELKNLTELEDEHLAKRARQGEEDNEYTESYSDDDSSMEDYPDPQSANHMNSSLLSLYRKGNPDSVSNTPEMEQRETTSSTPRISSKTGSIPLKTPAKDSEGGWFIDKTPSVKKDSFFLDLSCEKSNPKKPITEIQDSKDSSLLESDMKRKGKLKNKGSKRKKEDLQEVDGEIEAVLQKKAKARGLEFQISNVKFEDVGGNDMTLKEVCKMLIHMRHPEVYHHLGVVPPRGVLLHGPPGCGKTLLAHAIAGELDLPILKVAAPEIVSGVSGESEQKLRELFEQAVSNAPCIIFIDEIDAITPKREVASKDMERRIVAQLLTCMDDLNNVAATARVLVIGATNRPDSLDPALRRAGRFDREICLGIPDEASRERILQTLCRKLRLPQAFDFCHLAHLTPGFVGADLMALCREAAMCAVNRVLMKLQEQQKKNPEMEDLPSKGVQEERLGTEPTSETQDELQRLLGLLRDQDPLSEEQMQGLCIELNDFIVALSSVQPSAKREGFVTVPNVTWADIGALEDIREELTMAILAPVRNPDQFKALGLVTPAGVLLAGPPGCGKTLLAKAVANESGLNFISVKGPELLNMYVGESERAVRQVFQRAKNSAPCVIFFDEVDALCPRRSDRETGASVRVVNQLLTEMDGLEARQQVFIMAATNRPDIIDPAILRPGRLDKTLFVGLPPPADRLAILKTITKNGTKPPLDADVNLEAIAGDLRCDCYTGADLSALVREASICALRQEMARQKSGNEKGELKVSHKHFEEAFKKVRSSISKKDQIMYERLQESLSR
UniProt O00567: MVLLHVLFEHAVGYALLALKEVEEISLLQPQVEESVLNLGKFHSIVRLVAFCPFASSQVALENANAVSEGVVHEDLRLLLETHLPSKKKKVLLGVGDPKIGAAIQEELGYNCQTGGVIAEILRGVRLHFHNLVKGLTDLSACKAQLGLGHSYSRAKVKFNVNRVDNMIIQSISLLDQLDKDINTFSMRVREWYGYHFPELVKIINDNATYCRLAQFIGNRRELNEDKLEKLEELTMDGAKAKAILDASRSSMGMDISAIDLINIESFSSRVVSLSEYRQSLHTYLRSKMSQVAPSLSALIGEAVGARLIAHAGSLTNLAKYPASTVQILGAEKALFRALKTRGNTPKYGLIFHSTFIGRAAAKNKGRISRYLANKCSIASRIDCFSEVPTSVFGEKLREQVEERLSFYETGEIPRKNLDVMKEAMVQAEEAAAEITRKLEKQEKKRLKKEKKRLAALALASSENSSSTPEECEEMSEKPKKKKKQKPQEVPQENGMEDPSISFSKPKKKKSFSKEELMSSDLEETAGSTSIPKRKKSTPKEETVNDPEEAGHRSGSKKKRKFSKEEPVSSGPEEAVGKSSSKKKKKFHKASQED
UniProt O43175: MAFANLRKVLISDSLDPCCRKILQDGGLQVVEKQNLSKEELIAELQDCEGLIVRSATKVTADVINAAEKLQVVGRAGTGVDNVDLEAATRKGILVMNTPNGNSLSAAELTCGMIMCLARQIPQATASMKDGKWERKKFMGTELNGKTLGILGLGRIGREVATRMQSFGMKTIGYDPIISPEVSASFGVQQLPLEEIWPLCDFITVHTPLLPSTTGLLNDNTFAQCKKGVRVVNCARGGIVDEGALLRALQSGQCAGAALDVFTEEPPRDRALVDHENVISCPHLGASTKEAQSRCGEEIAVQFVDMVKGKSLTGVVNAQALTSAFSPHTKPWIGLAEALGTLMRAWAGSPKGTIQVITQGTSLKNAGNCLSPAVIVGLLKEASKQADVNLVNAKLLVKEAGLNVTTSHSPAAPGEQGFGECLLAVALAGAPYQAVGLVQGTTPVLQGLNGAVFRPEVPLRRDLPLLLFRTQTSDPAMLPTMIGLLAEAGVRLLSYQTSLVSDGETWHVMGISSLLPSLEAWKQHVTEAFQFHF
UniProt O00148, whole entry, looked up: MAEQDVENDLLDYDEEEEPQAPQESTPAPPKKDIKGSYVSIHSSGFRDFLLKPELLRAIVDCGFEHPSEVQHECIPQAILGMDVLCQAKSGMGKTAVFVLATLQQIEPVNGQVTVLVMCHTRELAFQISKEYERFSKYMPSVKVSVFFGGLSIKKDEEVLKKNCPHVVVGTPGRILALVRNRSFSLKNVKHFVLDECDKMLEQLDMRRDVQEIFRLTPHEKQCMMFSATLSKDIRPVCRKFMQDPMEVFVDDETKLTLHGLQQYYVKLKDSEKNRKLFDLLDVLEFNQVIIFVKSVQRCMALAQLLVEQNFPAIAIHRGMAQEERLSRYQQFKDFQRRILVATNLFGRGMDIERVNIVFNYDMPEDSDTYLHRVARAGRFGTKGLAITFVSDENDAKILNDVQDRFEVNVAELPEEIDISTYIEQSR
UniProt O14734: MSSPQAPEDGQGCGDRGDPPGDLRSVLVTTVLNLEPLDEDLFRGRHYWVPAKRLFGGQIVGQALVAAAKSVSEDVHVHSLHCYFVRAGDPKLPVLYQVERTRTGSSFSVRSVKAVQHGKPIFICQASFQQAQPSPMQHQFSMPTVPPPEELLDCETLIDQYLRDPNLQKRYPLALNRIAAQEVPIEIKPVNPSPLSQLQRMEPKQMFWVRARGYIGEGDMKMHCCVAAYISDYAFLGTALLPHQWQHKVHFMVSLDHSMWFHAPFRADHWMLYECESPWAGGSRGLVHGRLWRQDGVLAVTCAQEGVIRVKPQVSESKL

compound: COC(=O)/C=C/c1ccccc1 [methyl cinnamate]; experiment: log2 ratio of iodoacetamide-alkyne labeling of the cysteine site, DMSO over compound (competition); higher = stronger covalent engagement of the cysteine by the compound, active = 1 or more; conditions: 500 µM; treatment time 1 h; system: HEK293T cell lysate
How it was run: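 After 1 h at ambient temperature with vehicle or electrophile (500 µM), HEK293T lysate (2 mg/mL) was labelled for 1 h with iodoacetamide alkyne and clicked to sCIP-TMT reagents. Pooled samples were trypsin-digested overnight at 37 °C, streptavidin-enriched, acid-eluted and analysed by Orbitrap Eclipse LC-MS/MS with FAIMS, then quantified in FragPipe over three replicates with duplicate channels. A cysteine's log2 competition ratio is its mean control-channel over mean compound-channel reporter intensity. Cysteines quantified in only one replicate were not included.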

log2 ratio of iodoacetamide-alkyne labeling, inactive:
AP3D1 C1133 (UniProt O14617) 0.249
PFAS C502 (UniProt O15067) 0.168
DNM1L C361 (UniProt O00429) 0.0314
EI24 C24 (UniProt O14681) 0.249
SPTBN2 C2070 (UniProt O15020) 0.331
EEF2K C482 (UniProt O00418) 0.372
TAF4 C867 (UniProt O00268) 0.198
PFAS C108 (UniProt O15067) 0.0473
IRS4 C1065 (UniProt O14654) 0.264
IPO5 C110 (UniProt O00410) 0.394
UniProt O43159_C451 0.19
PMM2 C103 (UniProt O15305) 0.158
IPO5 C420 (UniProt O00410) -0.0788
MIF4GD C49 (UniProt A9UHW6) 0.104
APAF1 C258 (UniProt O14727) -0.0214
DDX3X C128 (UniProt O00571) 0.198
STX16 C150 (UniProt O14662) 0.133
NVL C687 (UniProt O15381) -0.0614
GEMIN2 C89 (UniProt O14893) 0.313
EIF3D C258 (UniProt O15371) -0.112
CLIC1 C223 (UniProt O00299) -0.0438
UniProt O00567_C112 0.0351
UniProt O14618_C227 0.294
CIT C402 (UniProt O14578) 0.581
PFAS C606 (UniProt O15067) 0.278
PHGDH C254 (UniProt O43175) 0.0288
CD3EAP C55 (UniProt O15446) 0.933
ZSWIM8 C125 (UniProt A7E2V4) 0.187
NKRF C37 (UniProt O15226) 0.103
UniProt O14628_C178 0.16
IPO5 C733 (UniProt O00410) 0.0276
UniProt O00148_C86 -0.404
ACOT8 C13 (UniProt O14734) 0.343
FANCG C417 (UniProt O15287) 0.479
ARID1A C336 (UniProt O14497) 0.409
PRPF4 C441 (UniProt O43172) 0.0829
SPTBN2 C607 (UniProt O15020) 0.259
PES1 C391 (UniProt O00541) 0.132

Taken from the entries so far (2 entries):
log2 ratio of iodoacetamide-alkyne labeling, inactive:
IPO5 C733 (UniProt O00410) 0.0276
UniProt O00148_C86 -0.404
